From the supplement of paper PMC7661543
± gives the standard deviation of the averaged measurements. The effect of the compound repeats well; differences between the knockouts mostly do not.

Test system: MDA-MB-231
Experiment: relative cell number vs DMSO control (72 h) (% of DMSO); higher = less growth inhibition (more cells)
Procedure: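 QMAP-Seq: a pool of 5 breast cancer cell lines (ZR-75-1, SKBR3, HCC-38, MDA-MB-231, BT-20), each carrying 12 doxycycline-inducible Cas9 sgRNA perturbations (11 knockouts plus non-targeting sgNT), was treated with compounds for 72 h at four 10-fold doses (10 nM-10 uM or 1 nM-1 uM range). Barcodes were amplified and sequenced, and cell number was interpolated from 293T spike-in standard curves. The result is expressed as % of the median of DMSO wells. Two biological replicates.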

[1] = sgRNA knockout: sgATF3, 1000 nM
[2] = sgRNA knockout: sgATF3, 10000 nM
[3] = sgRNA knockout: sgATF4, 1000 nM
[4] = sgRNA knockout: sgATF4, 10000 nM
[5] = sgRNA knockout: sgATF6, 1000 nM
[6] = sgRNA knockout: sgATF6, 10000 nM
[7] = sgRNA knockout: sgATG7, 1000 nM
[8] = sgRNA knockout: sgATG7, 10000 nM
[9] = sgRNA knockout: sgERN1, 1000 nM
[10] = sgRNA knockout: sgERN1, 10000 nM
[11] = sgRNA knockout: sgHSF1, 1000 nM
[12] = sgRNA knockout: sgHSF1, 10000 nM
[13] = sgRNA knockout: sgHSF2, 1000 nM
[14] = sgRNA knockout: sgHSF2, 10000 nM
[15] = sgRNA knockout: sgKEAP1, 100 nM
[16] = sgRNA knockout: sgKEAP1, 1000 nM
[17] = sgRNA knockout: sgKEAP1, 10000 nM
[18] = sgRNA knockout: sgNFE2L2, 10 nM
[19] = sgRNA knockout: sgNFE2L2, 100 nM
[20] = sgRNA knockout: sgNFE2L2, 1000 nM
[21] = sgRNA knockout: sgNFE2L2, 10000 nM
[22] = sgRNA knockout: sgSLC35F2, 10 nM
[23] = sgRNA knockout: sgSLC35F2, 100 nM
[24] = sgRNA knockout: sgSLC35F2, 1000 nM
[25] = sgRNA knockout: sgSLC35F2, 10000 nM
[26] = sgRNA knockout: sgXBP1, 1000 nM
[27] = sgRNA knockout: sgXBP1, 10000 nM

SMILES: CC/C(=C(\c1ccc(O)cc1)c1ccc(OCCN(C)C)cc1)c1ccccc1 [4-Hydroxytamoxifen]
- relative cell number (sgRNA knockout: sgATF3, 10 nM): 99.1 ± 6.8
- relative cell number (sgRNA knockout: sgATF3, 100 nM): 78.6 ± 16
- relative cell number [1]: 108 ± 6.6
- relative cell number [2]: 70.3 ± 17
- relative cell number (sgRNA knockout: sgATF4, 10 nM): 91.4 ± 6.2
- relative cell number (sgRNA knockout: sgATF4, 100 nM): 75.3 ± 36
- relative cell number [3]: 86 ± 26
- relative cell number [4]: 44.6 ± 11
- relative cell number (sgRNA knockout: sgATF6, 10 nM): 87.5 ± 26
- relative cell number (sgRNA knockout: sgATF6, 100 nM): 76.1 ± 12
- relative cell number [5]: 109 ± 8.9
- relative cell number [6]: 69.9 ± 2.2
- relative cell number (sgRNA knockout: sgATG7, 10 nM): 99.6 ± 15
- relative cell number (sgRNA knockout: sgATG7, 100 nM): 90.1 ± 14
- relative cell number [7]: 92.6 ± 12
- relative cell number [8]: 66 ± 7
- relative cell number (sgRNA knockout: sgERN1, 10 nM): 101 ± 15
- relative cell number (sgRNA knockout: sgERN1, 100 nM): 98 ± 9.7
- relative cell number [9]: 96.6 ± 16
- relative cell number [10]: 68.1 ± 7.3
- relative cell number (sgRNA knockout: sgHSF1, 10 nM): 84.1 ± 2.2
- relative cell number (sgRNA knockout: sgHSF1, 100 nM): 82.23 ± 0.7
- relative cell number [11]: 114 ± 23
- relative cell number [12]: 63.2 ± 23
- relative cell number (sgRNA knockout: sgHSF2, 10 nM): 97.9 ± 19
- relative cell number (sgRNA knockout: sgHSF2, 100 nM): 94 ± 1.4
- relative cell number [13]: 92.48 ± 0.77
- relative cell number [14]: 52 ± 2.6
- relative cell number (sgRNA knockout: sgKEAP1, 10 nM): 118 ± 14
- relative cell number [15]: 86.7 ± 27
- relative cell number [16]: 96.3 ± 9.8
- relative cell number [17]: 44.7 ± 17
- relative cell number [18]: 99.3 ± 7.5
- relative cell number [19]: 75.6 ± 2.1
- relative cell number [20]: 92.6 ± 12
- relative cell number [21]: 67.9 ± 19
- relative cell number [22]: 81 ± 12
- relative cell number [23]: 103 ± 11
- relative cell number [24]: 72.2 ± 24
- relative cell number [25]: 64.2 ± 16
- relative cell number (sgRNA knockout: sgXBP1, 10 nM): 84.2 ± 1.5
- relative cell number (sgRNA knockout: sgXBP1, 100 nM): 111 ± 7.9
- relative cell number [26]: 82.3 ± 24
- relative cell number [27]: 61.1 ± 23

SMILES: S=c1nc[nH]c2nc[nH]c12 [6-Mercaptopurine]
- relative cell number (sgRNA knockout: sgATF3, 10 nM): 106 ± 14
- relative cell number (sgRNA knockout: sgATF3, 100 nM): 68.09 ± 0.57
- relative cell number [1]: 53.8 ± 5.2
- relative cell number [2]: 56.8 ± 8.4
- relative cell number (sgRNA knockout: sgATF4, 10 nM): 111 ± 21
- relative cell number (sgRNA knockout: sgATF4, 100 nM): 78.1 ± 11
- relative cell number [3]: 58.6 ± 22
- relative cell number [4]: 58.1 ± 10
- relative cell number (sgRNA knockout: sgATF6, 10 nM): 108.2 ± 0.79
- relative cell number (sgRNA knockout: sgATF6, 100 nM): 68.9 ± 9
- relative cell number [5]: 63.8 ± 24
- relative cell number [6]: 60 ± 17
- relative cell number (sgRNA knockout: sgATG7, 10 nM): 93.1 ± 11
- relative cell number (sgRNA knockout: sgATG7, 100 nM): 65.7 ± 15
- relative cell number [7]: 67.63 ± 0.14
- relative cell number [8]: 58.2 ± 5.6
- relative cell number (sgRNA knockout: sgERN1, 10 nM): 107 ± 12
- relative cell number (sgRNA knockout: sgERN1, 100 nM): 101.8 ± 0.78
- relative cell number [9]: 49.2 ± 6.1
- relative cell number [10]: 57.7 ± 7.1
- relative cell number (sgRNA knockout: sgHSF1, 10 nM): 106 ± 18
- relative cell number (sgRNA knockout: sgHSF1, 100 nM): 101 ± 15
- relative cell number [11]: 55 ± 2.5
- relative cell number [12]: 61.3 ± 15
- relative cell number (sgRNA knockout: sgHSF2, 10 nM): 112 ± 11
- relative cell number (sgRNA knockout: sgHSF2, 100 nM): 101 ± 35
- relative cell number [13]: 57.4 ± 5.1
- relative cell number [14]: 46.1 ± 6.6
- relative cell number (sgRNA knockout: sgKEAP1, 10 nM): 96.8 ± 7.3
- relative cell number [15]: 76.8 ± 13
- relative cell number [16]: 56.6 ± 7.7
- relative cell number [17]: 62.4 ± 15
- relative cell number [18]: 93.2 ± 7.8
- relative cell number [19]: 103 ± 7.3
- relative cell number [20]: 68.8 ± 11
- relative cell number [21]: 59.9 ± 2.3
- relative cell number [22]: 115 ± 12
- relative cell number [23]: 82.45 ± 0.76
- relative cell number [24]: 47.6 ± 7.5
- relative cell number [25]: 52.9 ± 6.6
- relative cell number (sgRNA knockout: sgXBP1, 10 nM): 103 ± 20
- relative cell number (sgRNA knockout: sgXBP1, 100 nM): 95.3 ± 7.5
- relative cell number [26]: 62.9 ± 1.8
- relative cell number [27]: 58.8 ± 1.4

SMILES: COc1cc(CCc2cc(NC(=O)c3ccc(N4CC(C)NC(C)C4)cc3)n[nH]2)cc(OC)c1 (configuration not stated) [AZD4547]
- relative cell number (sgRNA knockout: sgATF3, 10 nM): 89.7 ± 18
- relative cell number (sgRNA knockout: sgATF3, 100 nM): 92.6 ± 22
- relative cell number [1]: 81.1 ± 8.7
- relative cell number [2]: 30.4 ± 3.9
- relative cell number (sgRNA knockout: sgATF4, 10 nM): 79 ± 2
- relative cell number (sgRNA knockout: sgATF4, 100 nM): 71 ± 38
- relative cell number [3]: 85.7 ± 2
- relative cell number [4]: 27.3 ± 14
- relative cell number (sgRNA knockout: sgATF6, 10 nM): 57.1 ± 11
- relative cell number (sgRNA knockout: sgATF6, 100 nM): 93.2 ± 21
- relative cell number [5]: 80.3 ± 23
- relative cell number [6]: 26.1 ± 0.69
- relative cell number (sgRNA knockout: sgATG7, 10 nM): 86.9 ± 17
- relative cell number (sgRNA knockout: sgATG7, 100 nM): 84.8 ± 17
- relative cell number [7]: 95.2 ± 4.4
- relative cell number [8]: 39.7 ± 6.3
- relative cell number (sgRNA knockout: sgERN1, 10 nM): 92.9 ± 9.1
- relative cell number (sgRNA knockout: sgERN1, 100 nM): 92.7 ± 11
- relative cell number [9]: 92.5 ± 11
- relative cell number [10]: 31.7 ± 17
- relative cell number (sgRNA knockout: sgHSF1, 10 nM): 76.6 ± 2.1
- relative cell number (sgRNA knockout: sgHSF1, 100 nM): 93.5 ± 9.6
- relative cell number [11]: 90.1 ± 16
- relative cell number [12]: 37.3 ± 1.7
- relative cell number (sgRNA knockout: sgHSF2, 10 nM): 71.3 ± 27
- relative cell number (sgRNA knockout: sgHSF2, 100 nM): 83.9 ± 10
- relative cell number [13]: 89.5 ± 16
- relative cell number [14]: 26.4 ± 8.8
- relative cell number (sgRNA knockout: sgKEAP1, 10 nM): 80.4 ± 7
- relative cell number [15]: 106 ± 26
- relative cell number [16]: 85.8 ± 21
- relative cell number [17]: 33.5 ± 5.6
- relative cell number [18]: 76.4 ± 12
- relative cell number [19]: 94.2 ± 48
- relative cell number [20]: 78.69 ± 0.35
- relative cell number [21]: 31.5 ± 7.8
- relative cell number [22]: 76.3 ± 19
- relative cell number [23]: 81.5 ± 22
- relative cell number [24]: 108 ± 5.6
- relative cell number [25]: 29.3 ± 1.6
- relative cell number (sgRNA knockout: sgXBP1, 10 nM): 74.9 ± 13
- relative cell number (sgRNA knockout: sgXBP1, 100 nM): 102 ± 33
- relative cell number [26]: 79.1 ± 4.9
- relative cell number [27]: 31.2 ± 3.9
